{"sequences": {"note": "Protein sequences, listed by entry. Tags and fused reporters are not part of them. Residues count along the entry.", "UniProt Q13526": "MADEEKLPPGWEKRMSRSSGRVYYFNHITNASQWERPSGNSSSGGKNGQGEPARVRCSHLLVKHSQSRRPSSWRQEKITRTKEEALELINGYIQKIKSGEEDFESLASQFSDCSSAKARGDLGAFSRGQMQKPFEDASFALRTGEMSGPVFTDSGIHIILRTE", "UniProt O96017": "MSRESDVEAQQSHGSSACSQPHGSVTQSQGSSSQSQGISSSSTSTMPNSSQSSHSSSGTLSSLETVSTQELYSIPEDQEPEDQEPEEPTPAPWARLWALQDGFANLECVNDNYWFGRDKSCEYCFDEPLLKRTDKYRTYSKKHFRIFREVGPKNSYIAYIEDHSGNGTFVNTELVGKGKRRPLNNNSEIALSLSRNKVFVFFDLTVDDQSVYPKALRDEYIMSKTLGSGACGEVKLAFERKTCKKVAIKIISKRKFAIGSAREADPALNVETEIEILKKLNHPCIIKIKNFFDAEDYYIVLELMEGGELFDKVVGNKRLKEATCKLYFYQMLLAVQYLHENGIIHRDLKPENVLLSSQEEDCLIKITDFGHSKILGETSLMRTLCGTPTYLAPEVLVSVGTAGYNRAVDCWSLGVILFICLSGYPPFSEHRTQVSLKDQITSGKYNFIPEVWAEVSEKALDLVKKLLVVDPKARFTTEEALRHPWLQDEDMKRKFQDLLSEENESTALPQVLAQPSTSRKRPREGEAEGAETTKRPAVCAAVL", "UniProt P68400": "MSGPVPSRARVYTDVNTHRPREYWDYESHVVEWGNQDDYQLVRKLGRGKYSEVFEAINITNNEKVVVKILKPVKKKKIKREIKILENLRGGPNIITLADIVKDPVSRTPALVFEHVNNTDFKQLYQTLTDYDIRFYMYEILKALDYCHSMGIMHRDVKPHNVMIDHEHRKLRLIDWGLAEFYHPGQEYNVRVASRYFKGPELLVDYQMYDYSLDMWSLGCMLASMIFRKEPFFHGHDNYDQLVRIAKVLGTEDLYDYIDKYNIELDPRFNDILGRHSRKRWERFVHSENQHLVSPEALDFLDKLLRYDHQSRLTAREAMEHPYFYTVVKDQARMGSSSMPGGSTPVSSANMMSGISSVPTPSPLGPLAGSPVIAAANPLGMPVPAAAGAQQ", "UniProt Q8WZA1": "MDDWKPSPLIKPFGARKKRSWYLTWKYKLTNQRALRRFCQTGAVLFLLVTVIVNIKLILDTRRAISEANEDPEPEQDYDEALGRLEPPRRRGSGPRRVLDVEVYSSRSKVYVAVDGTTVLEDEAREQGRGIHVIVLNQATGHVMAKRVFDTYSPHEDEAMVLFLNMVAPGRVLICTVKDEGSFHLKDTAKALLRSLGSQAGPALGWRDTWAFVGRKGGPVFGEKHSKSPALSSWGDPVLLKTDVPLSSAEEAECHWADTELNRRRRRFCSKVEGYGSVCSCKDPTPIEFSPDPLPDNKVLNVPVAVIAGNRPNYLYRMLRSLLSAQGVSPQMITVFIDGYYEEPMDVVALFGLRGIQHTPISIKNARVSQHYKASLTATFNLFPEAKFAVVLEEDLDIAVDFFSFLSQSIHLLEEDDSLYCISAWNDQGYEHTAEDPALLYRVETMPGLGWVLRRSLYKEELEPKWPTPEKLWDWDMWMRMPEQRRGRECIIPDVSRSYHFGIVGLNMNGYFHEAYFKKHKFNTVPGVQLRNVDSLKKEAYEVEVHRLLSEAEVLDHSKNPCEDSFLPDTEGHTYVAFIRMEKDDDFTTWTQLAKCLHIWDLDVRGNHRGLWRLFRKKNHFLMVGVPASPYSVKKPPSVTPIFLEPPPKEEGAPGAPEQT", "UniProt O00232": "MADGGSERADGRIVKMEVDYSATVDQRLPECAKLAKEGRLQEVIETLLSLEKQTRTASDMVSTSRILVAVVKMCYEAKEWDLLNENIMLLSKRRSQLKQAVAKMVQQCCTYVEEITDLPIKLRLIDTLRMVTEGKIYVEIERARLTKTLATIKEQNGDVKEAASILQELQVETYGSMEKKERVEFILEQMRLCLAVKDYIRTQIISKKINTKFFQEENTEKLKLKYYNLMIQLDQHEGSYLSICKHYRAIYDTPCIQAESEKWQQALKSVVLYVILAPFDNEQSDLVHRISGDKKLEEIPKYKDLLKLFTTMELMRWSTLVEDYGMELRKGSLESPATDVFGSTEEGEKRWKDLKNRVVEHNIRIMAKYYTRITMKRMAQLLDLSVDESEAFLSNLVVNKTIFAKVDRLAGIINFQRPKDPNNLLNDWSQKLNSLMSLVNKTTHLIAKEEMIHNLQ", "UniProt Q9UNM6": "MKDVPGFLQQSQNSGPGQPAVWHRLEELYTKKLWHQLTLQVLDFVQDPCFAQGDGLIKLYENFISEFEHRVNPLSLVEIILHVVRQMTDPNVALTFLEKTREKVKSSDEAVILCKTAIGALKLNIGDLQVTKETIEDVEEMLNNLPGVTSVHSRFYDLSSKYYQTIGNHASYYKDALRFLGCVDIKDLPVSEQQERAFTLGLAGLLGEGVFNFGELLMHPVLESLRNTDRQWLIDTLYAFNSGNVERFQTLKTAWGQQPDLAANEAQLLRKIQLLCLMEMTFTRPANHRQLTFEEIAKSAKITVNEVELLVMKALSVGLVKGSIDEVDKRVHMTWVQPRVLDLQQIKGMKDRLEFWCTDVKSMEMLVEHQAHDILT", "UniProt P13612, residues 34-1032": "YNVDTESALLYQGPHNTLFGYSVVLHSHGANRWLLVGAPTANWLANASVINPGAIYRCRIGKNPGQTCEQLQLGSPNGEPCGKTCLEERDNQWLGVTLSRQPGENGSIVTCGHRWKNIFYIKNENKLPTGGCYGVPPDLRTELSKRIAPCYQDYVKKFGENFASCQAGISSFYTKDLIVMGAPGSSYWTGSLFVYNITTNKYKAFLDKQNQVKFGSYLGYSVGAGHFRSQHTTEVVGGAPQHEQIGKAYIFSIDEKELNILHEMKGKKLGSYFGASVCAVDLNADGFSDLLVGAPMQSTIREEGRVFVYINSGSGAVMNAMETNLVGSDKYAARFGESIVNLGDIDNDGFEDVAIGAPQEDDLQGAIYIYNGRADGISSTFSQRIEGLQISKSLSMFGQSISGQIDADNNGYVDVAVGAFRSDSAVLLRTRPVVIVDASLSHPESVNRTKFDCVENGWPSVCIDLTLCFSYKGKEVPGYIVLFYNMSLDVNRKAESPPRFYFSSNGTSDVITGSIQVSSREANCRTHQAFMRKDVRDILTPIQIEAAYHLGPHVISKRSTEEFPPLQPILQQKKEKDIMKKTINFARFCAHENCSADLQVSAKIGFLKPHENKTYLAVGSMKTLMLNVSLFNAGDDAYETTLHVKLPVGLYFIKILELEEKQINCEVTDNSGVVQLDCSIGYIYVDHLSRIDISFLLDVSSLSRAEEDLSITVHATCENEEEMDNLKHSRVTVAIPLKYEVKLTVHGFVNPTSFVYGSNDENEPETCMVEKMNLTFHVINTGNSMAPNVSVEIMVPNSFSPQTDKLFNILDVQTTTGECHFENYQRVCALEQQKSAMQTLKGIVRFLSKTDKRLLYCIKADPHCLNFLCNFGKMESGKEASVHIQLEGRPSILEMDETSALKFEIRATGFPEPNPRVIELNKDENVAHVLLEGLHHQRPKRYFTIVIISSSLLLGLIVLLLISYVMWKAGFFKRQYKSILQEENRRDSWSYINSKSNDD"}, "source": "paper PMC12539243", "note": "These are yes or no findings as the source states them, for the method shown. In cells and extracts the contact can be indirect. A yes stands for co-enrichment or nearness to the bait. Other partners may have been found."}
{"biological_target": "endogenous PIN1 with a Twin-Strep tag inserted at the native locus (human (endogenous in HEK293T)) (UniProt Q13526)", "test": "proximity labelling; APPLE-MS on lysate of HEK293T knock-in cells with Twin-Strep-tagged endogenous PIN1; SA-PupE, PafA12KR, ATP; 8 M urea, biotin agarose, label-free MS"}
{"molecule": "RFC1 (protein, UniProt P35251 1-1148) MDIRKFFGVIPSGKKLVSETVKKNEKTKSDEETLKAKKGIKEIKVNSSRKEDDFKQKQPSKKKRIIYDSDSESEETLQVKNAKKPPEKLPVSSKPGKISRQDPVTYISETDEEDDFMCKKAASKSKENGRSTNSHLGTSNMKKNEENTKTKNKPLSPIKLTPTSVLDYFGTGSVQRSNKKMVASKRKELSQNTDESGLNDEAIAKQLQLDEDAELERQLHEDEEFARTLAMLDEEPKTKKARKDTEAGETFSSVQANLSKAEKHKYPHKVKTAQVSDERKSYSPRKQSKYESSKESQQHSKSSADKIGEVSSPKASSKLAIMKRKEESSYKEIEPVASKRKENAIKLKGETKTPKKTKSSPAKKESVSPEDSEKKRTNYQAYRSYLNREGPKALGSKEIPKGAENCLEGLIFVITGVLESIERDEAKSLIERYGGKVTGNVSKKTNYLVMGRDSGQSKSDKAAALGTKIIDEDGLLNLIRTMPGKKSKYEIAVETEMKKESKLERTPQKNVQGKRKISPSKKESESKKSRPTSKRDSLAKTIKKETDVFWKSLDFKEQVAEETSGDSKARNLADDSSENKVENLLWVDKYKPTSLKTIIGQQGDQSCANKLLRWLRNWQKSSSEDKKHAAKFGKFSGKDDGSSFKAALLSGPPGVGKTTTASLVCQELGYSYVELNASDTRSKSSLKAIVAESLNNTSIKGFYSNGAASSVSTKHALIMDEVDGMAGNEDRGGIQELIGLIKHTKIPIICMCNDRNHPKIRSLVHYCFDLRFQRPRVEQIKGAMMSIAFKEGLKIPPPAMNEIILGANQDIRQVLHNLSMWCARSKALTYDQAKADSHRAKKDIKMGPFDVARKVFAAGEETAHMSLVDKSDLFFHDYSIAPLFVQENYIHVKPVAAGGDMKKHLMLLSRAADSICDGDLVDSQIRSKQNWSLLPAQAIYASVLPGELMRGYMTQFPTFPSWLGKHSSTGKHDRIVQDLALHMSLRTYSSKRTVNMDYLSLLRDALVQPLTSQGVDGVQDVVALMDTYYLMKEDFENIMEISSWGGKPSPFSKLDPKVKAAFTRAYNKEAHLTPYSLQAIKASRHSTSPSLDSEYNEELNEDDSQSDEKDQDAIETDAMIKKKTKSSKPSKPEKDKEPRKGKGKSSKK", "binding": "binds"}
{"molecule": "MNAT (protein, UniProt P51948 1-309) MDDQGCPRCKTTKYRNPSLKLMVNVCGHTLCESCVDLLFVRGAGNCPECGTPLRKSNFRVQLFEDPTVDKEVEIRKKVLKIYNKREEDFPSLREYNDFLEEVEEIVFNLTNNVDLDNTKKKMEIYQKENKDVIQKNKLKLTREQEELEEALEVERQENEQRRLFIQKEEQLQQILKRKNKQAFLDELESSDLPVALLLAQHKDRSTQLEMQLEKPKPVKPVTFSTGIKMGQHISLAPIHKLEEALYEYQPLQIETYGPHVPELEMLGRLGYLNHVRAASPQDLAGGYTSSLACHRALQDAFSGLFWQPS", "binding": "binds"}
{"biological_target": "SARS-CoV-2 ORF9B with C-terminal Twin-Strep tag (SARS-CoV-2) (UniProt P0DTD2)", "test": "proximity labelling"}
{"molecule": "DNA damage checkpoint kinase CHEK2 (from UniProt O96017 1-543)", "binding": "binds"}
{"molecule": "SQSTM1 (endogenous) (from UniProt Q13501 1-440)", "binding": "binds"}
{"molecule": "casein kinase CSNK2A1 (from UniProt P68400 1-391)", "binding": "binds"}
{"molecule": "glycosyltransferase POMGNT1 (from UniProt Q8WZA1 1-660)", "binding": "binds"}
{"molecule": "proteasomal subunit PSMD12 (from UniProt O00232 1-456)", "binding": "binds"}
{"molecule": "proteasomal subunit PSMD13 (from UniProt Q9UNM6 1-376)", "binding": "binds"}
{"molecule": "KNSTRN (endogenous) (protein, UniProt Q9Y448 1-316) MAAPEAPPLDRVFRTTWLSTECDSHPLPPSYRKFLFETQAADLAGGTTVAAGNLLNESEKDCGQDRRAPGVQPCRLVTMTSVVKTVYSLQPPSALSGGQPADTQTRATSKSLLPVRSKEVDVSKQLHSGGPENDVTKITKLRRENGQMKATDTATRRNVRKGYKPLSKQKSEEELKDKNQLLEAVNKQLHQKLTETQGELKDLTQKVELLEKFRDNCLAILESKGLDPALGSETLASRQESTTDHMDSMLLLETLQEELKLFNETAKKQMEELQALKVKLEMKEERVRFLEQQTLCNNQVNDLTTALKEMEQLLEM", "binding": "binds"}
{"molecule": "RBM42 (endogenous) (protein, UniProt Q9BTD8 1-480) MAGAGPAPGLPGAGGPVVPGPGAGIPGKSGEERLKEMEAEMALFEQEVLGAPVPGIPTAVPAVPTVPTVPTVEAMQVPAAPVIRPIIATNTYQQVQQTLEARAAAAATVVPPMVGGPPFVGPVGFGPGDRSHLDSPEAREAMFLRRAAVAPQRAPILRPAFVPHVLQRADSALSSAAAGPRPMALRPPHQALVGPPLPGPPGPPMMLPPMARAPGPPLGSMAALRPPLEEPAAPRELGLGLGLGLKEKEEAVVAAAAGLEEASAAVAVGAGGAPAGPAVIGPSLPLALAMPLPEPEPLPLPLEVVRGLLPPLRIPELLSLRPRPRPPRPEPPPGLMALEVPEPLGEDKKKGKPEKLKRCIRTAAGSSWEDPSLLEWDADDFRIFCGDLGNEVNDDILARAFSRFPSFLKAKVIRDKRTGKTKGYGFVSFKDPSDYVRAMREMNGKYVGSRPIKLRKSMWKDRNLDVVRKKQKEKKKLGLR", "binding": "binds"}
{"molecule": "E3 ubiquitin ligase RNF123 (protein, UniProt Q5XPI4 1-1314) MASKGAGMSFSRKSYRLTSDAEKSRVTGIVQEKLLNDYLNRIFSSSEHAPPAATSRKPLNFQNLPEHLDQLLQVDNEEEESQGQVEGRLGPSTVVLDHTGGFEGLLLVDDDLLGVIGHSNFGTIRSTTCVYKGKWLYEVLISSQGLMQIGWCTISCRFNQEEGVGDTHNSYAYDGNRVRKWNVTTTNYGKAWAAGDIVSCLIDLDDGTLSFCLNGVSLGTAFENLSRGLGMAYFPAISLSFKESVAFNFGSRPLRYPVAGYRPLQDPPSADLVRAQRLLGCFRAVLSVELDPVEGRLLDKESSKWRLRGQPTVLLTLAHIFHHFAPLLRKVYLVEAVLMSFLLGIVEKGTPTQAQSVVHQVLDLLWLFMEDYEVQDCLKQLMMSLLRLYRFSPIVPDLGLQIHYLRLTIAILRHEKSRKFLLSNVLFDVLRSVVFFYIKSPLRVEEAGLQELIPTTWWPHCSSREGKESTEMKEETAEERLRRRAYERGCQRLRKRIEVVEELQVQILKLLLDNKDDNGGEASRYIFLTKFRKFLQENASGRGNMPMLCPPEYMVCFLHRLISALRYYWDEYKASNPHASFSEEAYIPPQVFYNGKVDYFDLQRLGGLLSHLRKTLKDDLASKANIVIDPLELQSTAMDDLDEDEEPAPAMAQRPMQALAVGGPLPLPRPGWLSSPTLGRANRFLSTAAVSLMTPRRPLSTSEKVKVRTLSVEQRTREDIEGSHWNEGLLLGRPPEEPEQPLTENSLLEVLDGAVMMYNLSVHQQLGKMVGVSDDVNEYAMALRDTEDKLRRCPKRRKDILAELTKSQKVFSEKLDHLSRRLAWVHATVYSQEKMLDIYWLLRVCLRTIEHGDRTGSLFAFMPEFYLSVAINSYSALKNYFGPVHSMEELPGYEETLTRLAAILAKHFADARIVGTDIRDSLMQALASYVCYPHSLRAVERIPEEQRIAMVRNLLAPYEQRPWAQTNWILVRLWRGCGFGYRYTRLPHLLKTKLEDANLPSLQKPCPSTLLQQHMADLLQQGPDVAPSFLNSVLNQLNWAFSEFIGMIQEIQQAAERLERNFVDSRQLKVCATCFDLSVSLLRVLEMTITLVPEIFLDWTRPTSEMLLRRLAQLLNQVLNRVTAERNLFDRVVTLRLPGLESVDHYPILVAVTGILVQLLVRGPASEREQATSVLLADPCFQLRSICYLLGQPEPPAPGTALPAPDRKRFSLQSYADYISADELAQVEQMLAHLTSASAQAAAASLPTSEEDLCPICYAHPISAVFQPCGHKSCKACINQHLMNNKDCFFCKTTIVSVEDWEKGANTSTTSSAA", "binding": "binds"}
{"molecule": "RBM19 (endogenous) (protein, UniProt Q9Y4C8 1-960) MSRLIVKNLPNGMKEERFRQLFAAFGTLTDCSLKFTKDGKFRKFGFIGFKSEEEAQKAQKHFNKSFIDTSRITVEFCKSFGDPAKPRAWSKHAQKPSQPKQPPKDSTTPEIKKDEKKKKVAGQLEKLKEDTEFQEFLSVHQRRAQAATWANDGLDAEPSKGKSKPASDYLNFDSDSGQESEEEGAGEDLEEEASLEPKAAVQKELSDMDYLKSKMVKAGSSSSSEEEESEDEAVHCDEGSEAEEEDSSATPVLQERDSKGAGQEQGMPAGKKRPPEARAETEKPANQKEPTTCHTVKLRGAPFNVTEKNVMEFLAPLKPVAIRIVRNAHGNKTGYIFVDFSNEEEVKQALKCNREYMGGRYIEVFREKNVPTTKGAPKNTTKSWQGRILGENEEEEDLAESGRLFVRNLPYTSTEEDLEKLFSKYGPLSELHYPIDSLTKKPKGFAFITFMFPEHAVKAYSEVDGQVFQGRMLHVLPSTIKKEASEDASALGSSSYKKKKEAQDKANSASSHNWNTLFMGPNAVADAIAQKYNATKSQVFDHETKGSVAVRVALGETQLVQEVRRFLIDNGVSLDSFSQAAAERSKTVILVKNLPAGTLAAQLQETFGHFGSLGRVLLPEGGITAIVEFLEPLEARKAFRHLAYSKFHHVPLYLEWAPVGVFSSTAPQKKKLQDTPSEPMEKDPAEPETVPDGETPEDENPTEEGADNSSAKMEEEEEEEEEEEESLPGCTLFIKNLNFDTTEEKLKEVFSKVGTVKSCSISKKKNKAGVLLSMGFGFVEYRKPEQAQKALKQLQGHVVDGHKLEVRISERATKPAVTLARKKQVPRKQTTSKILVRNIPFQAHSREIRELFSTFGELKTVRLPKKMTGTGTHRGFGFVDFLTKQDAKRAFNALCHSTHLYGRRLVLEWADSEVTLQALRRKTAAHFHEPPKKKRSVVLDEILEQLEGSDSDSEEQTLQL", "binding": "binds"}
{"molecule": "RAVER1 (endogenous) (protein, UniProt Q8IY67 1-606) MAADVSVTHRPPLSPKSGAEVEAGDAAERRAPEEELPPLDPEEIRKRLEHTERQFRNRRKILIRGLPGDVTNQEVHDLLSDYELKYCFVDKYKGTAFVTLLNGEQAEAAINAFHQSRLRERELSVQLQPTDALLCVANLPPSLTQQQFEELVRPFGSLERCFLVYSERTGQSKGYGFAEYMKKDSAARAKSDLLGKPLGPRTLYVHWTDAGQLTPALLHSRCLCVDRLPPGFNDVDALCRALSAVHSPTFCQLACGQDGQLKGFAVLEYETAEMAEEAQQQADGLSLGGSHLRVSFCAPGPPGRSMLAALIAAQATALNRGKGLLPEPNILQLLNNLGPSASLQLLLNPLLHGSAGGKQGLLGAPPAMPLLNGPALSTALLQLALQTQGQKKPGILGDSPLGALQPGAQPANPLLGELPAGGGLPPELPPRRGKPPPLLPSVLGPAGGDREALGLGPPAAQLTPPPAPVGLRGSGLRGPLSHFYSGSPTSYFTSGLQAGLKQSHLSKAIGSSPLGSGEGLLGLSPGPNGHSHLLKVRAGGGDMQGWEAPAPQRPLTRPALPSVSRPHWAARNAALPTCCPRPSPAQKAAMWASTPRASAATTRTPT", "binding": "binds"}
{"biological_target": "endogenous PIN1 with a Twin-Strep tag inserted at the native locus (human (endogenous in HEK293T)) (UniProt Q13526)", "test": "proximity labelling; APPLE-MS on lysate of HEK293T knock-in cells with Twin-Strep-tagged endogenous PIN1; SA-PupE, PafA12KR, ATP; 8 M urea, biotin agarose, label-free MS", "remark": "another data set of the same source"}
{"molecule": "ITGA4 (from UniProt P13612 34-1032)", "binding": "binds"}
